From the supplement of paper PMC12819154, “High-throughput peptide-centric local stability assay extends protein–ligand identification to membrane proteins, tissues and bacteria” (Nature Structural & Molecular Biology, 2025)
The list shows a part of the results. Small differences around the control level are noise.

Chains of the proteins cited; added tags and fusions are not shown. Lines headed by an entry give the natural chain unless they say otherwise; changes in a name come on top.
UniProt Q8C5N3: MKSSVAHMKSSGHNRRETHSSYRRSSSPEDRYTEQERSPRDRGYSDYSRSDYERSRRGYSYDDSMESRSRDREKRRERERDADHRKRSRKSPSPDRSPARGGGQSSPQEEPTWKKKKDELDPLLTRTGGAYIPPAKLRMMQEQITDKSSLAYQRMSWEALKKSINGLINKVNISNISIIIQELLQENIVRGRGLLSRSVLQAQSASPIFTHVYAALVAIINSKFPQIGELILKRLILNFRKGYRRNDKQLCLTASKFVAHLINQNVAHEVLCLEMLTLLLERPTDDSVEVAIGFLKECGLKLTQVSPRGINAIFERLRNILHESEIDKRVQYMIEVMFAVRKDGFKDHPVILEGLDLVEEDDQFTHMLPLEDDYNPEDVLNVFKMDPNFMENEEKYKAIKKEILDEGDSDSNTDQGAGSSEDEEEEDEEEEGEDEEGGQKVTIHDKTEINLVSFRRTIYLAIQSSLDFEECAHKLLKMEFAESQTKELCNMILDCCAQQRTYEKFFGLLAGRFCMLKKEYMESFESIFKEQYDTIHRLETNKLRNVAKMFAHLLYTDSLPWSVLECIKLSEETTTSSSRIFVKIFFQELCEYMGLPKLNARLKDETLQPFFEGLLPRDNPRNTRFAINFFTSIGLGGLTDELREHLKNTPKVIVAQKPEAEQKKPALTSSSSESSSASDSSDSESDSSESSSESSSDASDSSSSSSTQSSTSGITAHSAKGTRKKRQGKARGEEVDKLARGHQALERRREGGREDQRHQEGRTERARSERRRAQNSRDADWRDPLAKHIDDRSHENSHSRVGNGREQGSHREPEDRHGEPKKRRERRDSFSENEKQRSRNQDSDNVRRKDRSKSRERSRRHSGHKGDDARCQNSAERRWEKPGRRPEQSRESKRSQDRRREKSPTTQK
UniProt Q8BZS9: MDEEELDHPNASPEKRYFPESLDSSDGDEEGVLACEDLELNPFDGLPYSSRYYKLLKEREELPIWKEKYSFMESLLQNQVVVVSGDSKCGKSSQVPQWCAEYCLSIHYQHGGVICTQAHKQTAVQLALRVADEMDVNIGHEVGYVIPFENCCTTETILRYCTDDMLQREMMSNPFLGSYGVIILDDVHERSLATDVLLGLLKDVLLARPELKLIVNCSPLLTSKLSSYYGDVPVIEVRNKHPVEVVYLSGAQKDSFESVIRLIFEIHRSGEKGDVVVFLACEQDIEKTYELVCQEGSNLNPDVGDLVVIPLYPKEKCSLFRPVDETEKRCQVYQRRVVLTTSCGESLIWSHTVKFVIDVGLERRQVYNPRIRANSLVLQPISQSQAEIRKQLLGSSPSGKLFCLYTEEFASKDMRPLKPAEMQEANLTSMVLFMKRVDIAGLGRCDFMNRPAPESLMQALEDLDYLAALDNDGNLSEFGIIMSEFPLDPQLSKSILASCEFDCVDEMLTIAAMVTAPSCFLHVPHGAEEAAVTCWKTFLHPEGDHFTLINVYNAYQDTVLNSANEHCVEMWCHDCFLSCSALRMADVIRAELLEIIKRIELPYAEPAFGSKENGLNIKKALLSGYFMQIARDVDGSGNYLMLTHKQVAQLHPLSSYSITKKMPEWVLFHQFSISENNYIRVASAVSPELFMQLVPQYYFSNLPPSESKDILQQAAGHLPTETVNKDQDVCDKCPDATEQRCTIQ
UniProt Q8C2E4: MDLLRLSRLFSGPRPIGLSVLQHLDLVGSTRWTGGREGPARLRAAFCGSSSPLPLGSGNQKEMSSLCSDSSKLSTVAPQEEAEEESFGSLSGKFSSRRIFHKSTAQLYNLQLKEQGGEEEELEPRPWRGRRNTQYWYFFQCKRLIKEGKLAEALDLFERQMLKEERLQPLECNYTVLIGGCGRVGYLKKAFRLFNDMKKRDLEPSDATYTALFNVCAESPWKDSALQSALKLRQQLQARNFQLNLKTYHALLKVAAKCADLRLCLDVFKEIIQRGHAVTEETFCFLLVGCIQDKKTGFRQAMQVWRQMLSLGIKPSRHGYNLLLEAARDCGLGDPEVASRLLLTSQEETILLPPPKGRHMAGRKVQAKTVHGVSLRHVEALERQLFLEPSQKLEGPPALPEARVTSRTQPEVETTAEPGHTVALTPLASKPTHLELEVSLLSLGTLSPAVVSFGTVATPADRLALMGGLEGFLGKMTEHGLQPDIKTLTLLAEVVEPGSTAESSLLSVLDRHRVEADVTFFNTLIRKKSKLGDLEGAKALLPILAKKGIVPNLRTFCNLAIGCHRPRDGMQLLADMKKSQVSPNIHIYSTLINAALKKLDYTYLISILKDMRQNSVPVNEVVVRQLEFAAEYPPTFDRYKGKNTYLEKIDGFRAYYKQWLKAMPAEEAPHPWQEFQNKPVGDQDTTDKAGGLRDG
UniProt Q8C2P3: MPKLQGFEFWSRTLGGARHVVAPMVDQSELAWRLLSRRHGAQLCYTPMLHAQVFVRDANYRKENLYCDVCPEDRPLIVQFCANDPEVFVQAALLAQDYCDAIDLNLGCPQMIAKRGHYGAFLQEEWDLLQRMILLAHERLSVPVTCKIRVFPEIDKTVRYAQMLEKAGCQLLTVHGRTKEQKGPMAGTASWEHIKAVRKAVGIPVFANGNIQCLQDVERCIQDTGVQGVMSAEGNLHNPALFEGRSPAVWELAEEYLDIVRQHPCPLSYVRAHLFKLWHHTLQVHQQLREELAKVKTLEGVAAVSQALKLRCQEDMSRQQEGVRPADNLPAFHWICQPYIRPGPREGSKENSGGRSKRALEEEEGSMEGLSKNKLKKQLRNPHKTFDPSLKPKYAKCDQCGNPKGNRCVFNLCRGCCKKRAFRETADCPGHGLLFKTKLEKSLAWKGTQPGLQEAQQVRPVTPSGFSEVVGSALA
UniProt Q8BZJ7: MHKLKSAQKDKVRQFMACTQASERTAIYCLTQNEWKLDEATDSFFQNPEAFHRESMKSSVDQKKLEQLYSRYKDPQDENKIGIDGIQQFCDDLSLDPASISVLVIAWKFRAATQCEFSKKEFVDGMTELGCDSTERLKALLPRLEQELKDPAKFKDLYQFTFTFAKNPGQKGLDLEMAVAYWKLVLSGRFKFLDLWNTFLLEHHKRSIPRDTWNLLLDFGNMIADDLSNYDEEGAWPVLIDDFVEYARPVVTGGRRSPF

Compound: CN[C@@H]1C[C@H]2O[C@@](C)([C@@H]1OC)n1c3ccccc3c3c4c(c5c6ccccc6n2c5c31)C(=O)NC4 [staurosporine]
Assay: log2 fold change of tryptic peptide abundance, ligand vs vehicle (limited proteolysis) (log2 ratio); higher = more trypsin-susceptible (destabilized)
Settings: ligand concentration: 20 uM; sample: mouse liver crude lysate; replicate design: treated separately

Row | Target | log2 fold change
1 | UniProt Q8C5N3 (peptide sequence: ETHSSYR, peptide start residue: 17) | -0.337
2 | UniProt Q8BZS9 (peptide sequence: DQDVCDKCPDATEQR, peptide start residue: 726) | 0.877
3 | UniProt Q8C2E4 (peptide sequence: HRVEADVTFFNTLIR, peptide start residue: 512) | -0.56
4 | UniProt Q8C2P3 (peptide sequence: LSVPVTCK, peptide start residue: 140) | 0.302
5 | UniProt Q8BZJ7 (peptide sequence: QFMACTQASER, peptide start residue: 14) | 0.0893
